Test results as given in article PMC3390373.
Results are given in words; binding and its absence hold for the method and conditions named. In cells and extracts the contact can be indirect. Some results given as binding are weak or reduced against the parent protein; the word gives no strength.

Chains of the proteins cited; added tags and fusions are not shown. Lines headed by an entry give the natural chain unless they say otherwise; changes in a name come on top. A line that says so, or that is headed by a name, gives the form on record, which may keep a tag or linker. Residues count along the entry.
UniProt P32905: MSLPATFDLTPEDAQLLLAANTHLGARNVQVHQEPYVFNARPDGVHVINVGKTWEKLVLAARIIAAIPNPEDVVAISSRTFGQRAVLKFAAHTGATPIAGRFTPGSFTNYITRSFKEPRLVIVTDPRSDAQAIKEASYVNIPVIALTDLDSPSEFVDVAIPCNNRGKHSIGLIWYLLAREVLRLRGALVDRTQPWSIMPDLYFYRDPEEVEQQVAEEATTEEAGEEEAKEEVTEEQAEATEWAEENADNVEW
FLAG-tagged C-terminally truncated RPS0A (residues 1–197): residues 1-197 of P32905
UniProt P38431: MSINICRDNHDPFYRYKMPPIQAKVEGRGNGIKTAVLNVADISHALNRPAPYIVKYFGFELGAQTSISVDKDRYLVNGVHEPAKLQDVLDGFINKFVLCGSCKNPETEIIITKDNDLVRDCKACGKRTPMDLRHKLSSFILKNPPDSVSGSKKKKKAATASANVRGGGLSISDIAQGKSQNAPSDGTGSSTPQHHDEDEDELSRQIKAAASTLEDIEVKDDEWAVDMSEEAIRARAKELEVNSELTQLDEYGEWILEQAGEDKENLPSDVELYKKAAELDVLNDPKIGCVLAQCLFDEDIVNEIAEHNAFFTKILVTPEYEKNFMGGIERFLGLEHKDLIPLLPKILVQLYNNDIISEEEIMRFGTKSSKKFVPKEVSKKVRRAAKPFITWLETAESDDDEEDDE

Assays:
[1] = biological target: FLAG-tagged full length RPS0A (S. cerevisiae) (UniProt P32905); assay: co-IP; WCE of H2880 wt cells overexpressing wt or C-terminally truncated RPS0A-FLAG; anti-FLAG M2 affinity matrix, 60 min, 4°C, buffer A200T (200 mM KCl, 20 mM Tris pH 8, 5 mM Mg acetate, 1 mM DTT, 0.2% Triton X-100); whole 40S subunits with their associated eIFs are recovered through the tagged RPS0A; Western blot, normalised to ASC1 (Figure 5B)
[2] = biological target: FLAG-tagged C-terminally truncated RPS0A (residues 1–197) (S. cerevisiae) (UniProt P32905); assay: as above

binding [1] | binding [2] | Molecule
binds |  | eIF5 (from UniProt P38431 1-405)
binds | binds | RACK1/ASC1/RPS33 (protein, UniProt P38011 1-319) MASNEVLVLRGTLEGHNGWVTSLATSAGQPNLLLSASRDKTLISWKLTGDDQKFGVPVRSFKGHSHIVQDCTLTADGAYALSASWDKTLRLWDVATGETYQRFVGHKSDVMSVDIDKKASMIISGSRDKTIKVWTIKGQCLATLLGHNDWVSQVRVVPNEKADDDSVTIISAGNDKMVKAWNLNQFQIEADFIGHNSNINTLTASPDGTLIASAGKDGEIMLWNLAAKKAMYTLSAQDEVFSLAFSPNRYWLAAATATGIKVFSLDPQYLVDDLRPEFAGYSKAAEPHAVSLAWSADGQTLFAGYTDNVIRVWQVMTAN
